Source: the supplement of paper PMC12823440, “Inhibitors supercharge kinase turnover through native proteolytic circuits” (Nature, 2025)
Counter-ions that a name gives are not always drawn. Some of the results follow. The calls rarely recur for the same compound in another form.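 Kinases were expressed as nanoluciferase fusions in K562 cells and luminescence was read every 4 h between 2 and 18 h as percent of control, DMSO set to 100% and a positive control to 0%. A time point counts as decreased when the signal drops significantly (2 sigma). The hit call is the authors' own, does not follow from the count of time points alone, and its rule is not shown.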

Sequences of proteins named here, by UniProt entry; tags and fusion partners are left off. A change or cut given only in a name is not applied to a line headed by its entry.
UniProt Q96KB5: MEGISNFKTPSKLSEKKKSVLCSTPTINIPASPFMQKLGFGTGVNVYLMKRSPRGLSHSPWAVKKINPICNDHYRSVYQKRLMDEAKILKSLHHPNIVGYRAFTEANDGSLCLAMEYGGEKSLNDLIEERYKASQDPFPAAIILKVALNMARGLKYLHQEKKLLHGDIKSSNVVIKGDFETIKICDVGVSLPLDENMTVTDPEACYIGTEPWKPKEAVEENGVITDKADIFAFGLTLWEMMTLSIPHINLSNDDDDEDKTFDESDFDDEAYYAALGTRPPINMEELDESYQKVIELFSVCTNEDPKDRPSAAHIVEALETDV

Biological target: PBK (UniProt Q96KB5)
Test: number of time points (of 5) at which kinase-Nluc abundance scored as decreased, DMSO-normalised (count); higher = more persistent destabilization
Conditions: K562; 2-18 h

Which “number of time points” value does the source give for O=C(/C=C/c1ccccc1)OC[C@H]1O[C@@H](O[C@@H]2OC=C[C@H]3[C@H](O)[C@@H]4O[C@]4(CO)[C@@H]23)[C@H](O)[C@@H](O)[C@@H]1O [Picroside I] (10 µM) here?
Its value is 0.

With CC1=C[C@]23C(=O)[C@@H](C=C(CO)[C@@H](O)[C@]2(O)[C@H]1O)[C@H]1[C@@H](C[C@H]3C)C1(C)C [Ingenol] (10 µM) as the compound, how does the “number of time points” value read?
Its value is 0.

O=Cc1cn(Cc2ccc(Cl)cc2)c2ccccc12 [Oncrasin-1] (10 µM) was tested. Which “number of time points” value did it give?
Its value is 0.

How did the “number of time points” value turn out when C[C@@H]1CC[C@H]2[C@@H](C)C(=O)O[C@@H]3O[C@@]4(C)CC[C@@H]1[C@]32OO4 [Artemisinin] (10 µM) was run?
Its value is 0.

Which “number of time points” value does the source give for C[C@H](Nc1ncnc2[nH]cnc12)c1nc2ccc(F)cc2c(=O)n1-c1ccccc1 [Acalisib] (10 µM) here?
Its value is 0.

For O=C1c2ccccc2C(=O)c2c1cccc2-c1cnn(C2CCNCC2)c1 [PDK4-IN-1 (hydrochloride)] (10 µM), which “number of time points” value is on record?
Its value is 0.

How did the “number of time points” value turn out when Cc1ccccc1-n1c(Cn2ncc3c(N)ncnc32)nc2cccc(C)c2c1=O (10 µM) was run?
Its value is 0.

Nc1ncnc2c1ncn2[C@@H]1O[C@@H]2COP(O)(=S)O[C@H]2[C@H]1O (stereo not given in full) [Sp-cAMPS (sodium salt)] (10 µM) was tested. Which “number of time points” value did it give?
The value was 0.

For CN(C)C(=O)c1ccc(Cn2c(C(=O)O)cc3c(Br)cc(Sc4ccc(Cl)c(Cl)c4)cc32)cc1 [Rheb inhibitor NR1] (10 µM), which “number of time points” value is on record?
Its value is 0.

For C/C=C(/C)C(=O)O[C@H]1[C@@H]2[C@H](C)C(=O)O[C@@H]2C[C@@H](C)[C@@H]2C=CC(=O)[C@]21C [Brevilin A] (2.5 µM), which “number of time points” value is on record?
The value was 0.
